Our source for the binding values is PMC10501989.

The chains behind the UniProt entries cited, without tags or fusion partners.
UniProt P23198: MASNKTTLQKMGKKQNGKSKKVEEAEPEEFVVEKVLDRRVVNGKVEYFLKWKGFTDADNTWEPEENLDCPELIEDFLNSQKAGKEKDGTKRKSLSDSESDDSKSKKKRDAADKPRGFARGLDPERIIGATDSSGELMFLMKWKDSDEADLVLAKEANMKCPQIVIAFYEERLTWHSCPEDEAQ
UniProt Q3TKT4: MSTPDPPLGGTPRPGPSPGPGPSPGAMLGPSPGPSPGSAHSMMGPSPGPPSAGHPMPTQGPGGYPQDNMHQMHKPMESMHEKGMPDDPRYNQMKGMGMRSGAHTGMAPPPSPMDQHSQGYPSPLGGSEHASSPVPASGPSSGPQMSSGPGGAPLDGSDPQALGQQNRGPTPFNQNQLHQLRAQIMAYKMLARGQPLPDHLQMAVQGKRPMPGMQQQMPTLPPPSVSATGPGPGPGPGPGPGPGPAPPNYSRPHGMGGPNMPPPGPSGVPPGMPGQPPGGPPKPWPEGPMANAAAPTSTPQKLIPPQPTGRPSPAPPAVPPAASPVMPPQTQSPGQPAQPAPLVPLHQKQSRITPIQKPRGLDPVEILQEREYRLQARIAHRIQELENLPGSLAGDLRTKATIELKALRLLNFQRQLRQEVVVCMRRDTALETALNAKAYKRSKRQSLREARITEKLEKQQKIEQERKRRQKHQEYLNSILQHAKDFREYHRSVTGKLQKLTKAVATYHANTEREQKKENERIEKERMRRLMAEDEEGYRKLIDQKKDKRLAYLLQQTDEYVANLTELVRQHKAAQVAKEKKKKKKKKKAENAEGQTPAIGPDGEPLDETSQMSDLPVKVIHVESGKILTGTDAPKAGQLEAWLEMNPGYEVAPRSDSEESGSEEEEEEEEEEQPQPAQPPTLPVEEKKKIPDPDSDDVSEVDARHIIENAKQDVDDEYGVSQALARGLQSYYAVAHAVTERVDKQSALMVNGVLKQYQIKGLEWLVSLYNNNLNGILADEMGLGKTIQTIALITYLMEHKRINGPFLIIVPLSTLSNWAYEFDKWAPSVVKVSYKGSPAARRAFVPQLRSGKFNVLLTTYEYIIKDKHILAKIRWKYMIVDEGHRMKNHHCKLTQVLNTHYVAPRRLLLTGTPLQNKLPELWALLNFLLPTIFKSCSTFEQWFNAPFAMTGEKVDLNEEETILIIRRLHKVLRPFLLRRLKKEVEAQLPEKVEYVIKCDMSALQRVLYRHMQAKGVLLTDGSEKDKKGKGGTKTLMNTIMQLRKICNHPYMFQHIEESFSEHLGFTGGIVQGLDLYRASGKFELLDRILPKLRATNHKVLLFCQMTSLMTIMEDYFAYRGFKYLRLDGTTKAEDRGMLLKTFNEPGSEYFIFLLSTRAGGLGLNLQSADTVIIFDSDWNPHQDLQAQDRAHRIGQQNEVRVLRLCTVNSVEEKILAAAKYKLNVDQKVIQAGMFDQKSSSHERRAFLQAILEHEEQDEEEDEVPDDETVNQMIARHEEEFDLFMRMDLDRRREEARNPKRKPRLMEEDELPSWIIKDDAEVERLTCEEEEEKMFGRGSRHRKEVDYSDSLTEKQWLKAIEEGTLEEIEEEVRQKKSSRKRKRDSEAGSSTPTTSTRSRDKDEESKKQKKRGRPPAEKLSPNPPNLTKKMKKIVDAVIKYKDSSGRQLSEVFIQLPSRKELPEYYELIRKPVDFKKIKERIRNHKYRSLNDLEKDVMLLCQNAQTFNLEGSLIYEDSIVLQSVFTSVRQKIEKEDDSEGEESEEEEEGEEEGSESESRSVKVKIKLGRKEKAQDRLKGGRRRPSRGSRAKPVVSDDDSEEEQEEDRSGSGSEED

B1: CCCTC-binding factor (CTCF) (protein, UniProt Q61164 1-736)
chain: MEGEAVEAIVEESETFIKGKERKTYQRRREGGQEEDACHLPQNQTDGGEVVQDVNSSVQMVMMEQLDPTLLQMKTEVMEGTVAPEAEAAVDDTQIITLQVVNMEEQPINIGELQLVQVPVPVTVPVATTSVEELQGAYENEVSKEGLAESEPMICHTLPLPEGFQVVKVGANGEVETLEQGELPPQEDSSWQKDPDYQPPAKKTKKTKKSKLRYTEEGKDVDVSVYDFEEEQQEGLLSEVNAEKVVGNMKPPKPTKIKKKGVKKTFQCELCSYTCPRRSNLDRHMKSHTDERPHKCHLCGRAFRTVTLLRNHLNTHTGTRPHKCPDCDMAFVTSGELVRHRRYKHTHEKPFKCSMCDYASVEVSKLKRHIRSHTGERPFQCSLCSYASRDTYKLKRHMRTHSGEKPYECYICHARFTQSGTMKMHILQKHTENVAKFHCPHCDTVIARKSDLGVHLRKQHSYIEQGKKCRYCDAVFHERYALIQHQKSHKNEKRFKCDQCDYACRQERHMIMHKRTHTGEKPYACSHCDKTFRQKQLLDMHFKRYHDPNFVPAAFVCSKCGKTFTRRNTMARHADNCAGPDGVEGENGGETKKSKRGRKRKMRSKKEDSSDSEENAEPDLDDNEEEEEPAVEIEPEPEPQPQPPPPPQPVAPAPPPAKKRRGRPPGRTNQPKQNQPTAIIQVEDQNTGAIENIIVEVKKEPDAEPAEGEEEEAQAATTDAPNGDLTPEMILSMMDR

These are yes or no findings as the source states them, for the method shown. Binding seen in cells or lysates may run through a third protein. These calls come from enrichment with a bait or labelling near it, and not all partners need be listed.

This assay has as its target T1, activity-dependent neuroprotector homeobox protein (ADNP) (mouse (endogenous in Th2 cells)) (UniProt Q9Z103).
T1 sequence: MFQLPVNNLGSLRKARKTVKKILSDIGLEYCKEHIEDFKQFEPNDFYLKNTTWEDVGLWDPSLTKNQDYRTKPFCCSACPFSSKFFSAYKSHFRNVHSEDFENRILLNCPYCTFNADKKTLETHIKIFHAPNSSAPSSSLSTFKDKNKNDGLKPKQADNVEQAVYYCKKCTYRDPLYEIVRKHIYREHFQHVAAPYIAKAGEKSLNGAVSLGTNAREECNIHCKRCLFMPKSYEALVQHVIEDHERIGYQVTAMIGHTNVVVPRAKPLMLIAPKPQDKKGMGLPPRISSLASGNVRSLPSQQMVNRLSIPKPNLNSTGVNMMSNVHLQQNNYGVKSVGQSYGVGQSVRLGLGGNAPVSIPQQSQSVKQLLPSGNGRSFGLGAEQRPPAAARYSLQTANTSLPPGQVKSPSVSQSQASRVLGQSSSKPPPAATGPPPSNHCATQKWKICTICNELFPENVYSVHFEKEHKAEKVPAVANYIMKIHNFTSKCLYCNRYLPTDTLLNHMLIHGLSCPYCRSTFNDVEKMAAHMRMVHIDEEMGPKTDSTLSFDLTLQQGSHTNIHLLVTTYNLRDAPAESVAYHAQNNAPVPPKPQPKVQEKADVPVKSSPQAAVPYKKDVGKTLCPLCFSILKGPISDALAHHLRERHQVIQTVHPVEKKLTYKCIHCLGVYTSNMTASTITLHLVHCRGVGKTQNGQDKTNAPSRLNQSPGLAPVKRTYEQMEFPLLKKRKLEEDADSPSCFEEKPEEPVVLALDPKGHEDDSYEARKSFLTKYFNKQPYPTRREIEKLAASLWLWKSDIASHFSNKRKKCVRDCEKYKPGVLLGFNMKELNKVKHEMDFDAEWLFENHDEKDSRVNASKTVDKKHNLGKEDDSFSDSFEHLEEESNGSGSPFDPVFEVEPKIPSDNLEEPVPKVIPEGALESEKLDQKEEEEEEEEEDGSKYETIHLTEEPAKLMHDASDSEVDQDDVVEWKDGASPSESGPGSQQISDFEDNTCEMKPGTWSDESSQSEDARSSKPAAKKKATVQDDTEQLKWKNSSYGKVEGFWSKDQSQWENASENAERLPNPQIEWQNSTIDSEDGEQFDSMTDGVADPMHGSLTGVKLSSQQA
In words: affinity purification with mass spectrometry; anti-ADNP immunoprecipitation from Th2 cell lysate (antibody overnight at 4 °C, protein A/G Dynabeads), on-bead trypsin digestion, LC-MS/MS; compared with isotype control.
As to HP1γ (CBX3) (from UniProt P23198 1-183), the binding result is on record as “binds”.
For “Brahma-related gene-1 (BRG1, encoded by Smarca4) (from UniProt Q3TKT4 1-1613)”, the binding result is recorded as “binds”.
With B1, the binding result is “binds”.
